The supplement of paper PMC10849652
The list shows a part of the results.

Chains of the proteins cited; added tags and fusions are not shown. Lines headed by an entry give the natural chain unless they say otherwise; changes in a name come on top.
UniProt P51580: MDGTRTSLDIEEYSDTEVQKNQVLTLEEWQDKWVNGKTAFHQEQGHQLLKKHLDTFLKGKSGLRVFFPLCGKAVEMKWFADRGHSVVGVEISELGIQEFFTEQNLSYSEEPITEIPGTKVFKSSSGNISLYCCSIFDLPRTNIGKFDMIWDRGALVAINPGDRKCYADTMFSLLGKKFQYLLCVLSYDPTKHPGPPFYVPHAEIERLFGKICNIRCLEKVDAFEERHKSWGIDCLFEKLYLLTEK
UniProt Q15650: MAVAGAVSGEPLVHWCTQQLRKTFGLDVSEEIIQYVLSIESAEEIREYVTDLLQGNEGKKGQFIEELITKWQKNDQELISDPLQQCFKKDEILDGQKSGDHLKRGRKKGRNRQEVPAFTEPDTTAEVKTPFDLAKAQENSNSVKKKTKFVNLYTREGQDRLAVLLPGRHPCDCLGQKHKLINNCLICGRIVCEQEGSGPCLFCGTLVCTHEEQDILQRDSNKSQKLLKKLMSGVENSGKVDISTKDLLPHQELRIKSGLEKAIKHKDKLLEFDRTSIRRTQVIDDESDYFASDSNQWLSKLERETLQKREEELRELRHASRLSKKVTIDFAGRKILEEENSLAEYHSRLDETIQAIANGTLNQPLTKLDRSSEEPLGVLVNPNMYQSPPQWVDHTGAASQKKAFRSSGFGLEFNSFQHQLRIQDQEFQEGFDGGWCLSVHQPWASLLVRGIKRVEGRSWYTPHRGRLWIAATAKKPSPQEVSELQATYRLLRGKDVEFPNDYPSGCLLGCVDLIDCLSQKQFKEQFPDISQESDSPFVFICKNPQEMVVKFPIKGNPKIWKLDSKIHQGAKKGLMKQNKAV
UniProt O14773: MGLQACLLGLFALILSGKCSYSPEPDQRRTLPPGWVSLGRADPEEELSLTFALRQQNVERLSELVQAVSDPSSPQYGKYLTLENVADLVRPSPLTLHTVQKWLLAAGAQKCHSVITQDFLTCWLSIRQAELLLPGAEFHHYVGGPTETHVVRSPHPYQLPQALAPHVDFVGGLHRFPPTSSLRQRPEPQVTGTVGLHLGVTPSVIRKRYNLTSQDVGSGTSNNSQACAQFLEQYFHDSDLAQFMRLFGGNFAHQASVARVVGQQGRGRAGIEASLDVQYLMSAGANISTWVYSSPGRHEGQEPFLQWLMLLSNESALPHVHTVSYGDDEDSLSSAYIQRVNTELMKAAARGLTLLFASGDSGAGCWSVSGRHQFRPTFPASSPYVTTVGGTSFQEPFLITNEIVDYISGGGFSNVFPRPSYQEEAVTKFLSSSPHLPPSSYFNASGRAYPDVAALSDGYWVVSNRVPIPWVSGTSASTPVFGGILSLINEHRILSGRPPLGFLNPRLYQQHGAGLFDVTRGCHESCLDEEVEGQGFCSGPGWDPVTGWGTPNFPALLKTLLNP
UniProt Q7Z4G4: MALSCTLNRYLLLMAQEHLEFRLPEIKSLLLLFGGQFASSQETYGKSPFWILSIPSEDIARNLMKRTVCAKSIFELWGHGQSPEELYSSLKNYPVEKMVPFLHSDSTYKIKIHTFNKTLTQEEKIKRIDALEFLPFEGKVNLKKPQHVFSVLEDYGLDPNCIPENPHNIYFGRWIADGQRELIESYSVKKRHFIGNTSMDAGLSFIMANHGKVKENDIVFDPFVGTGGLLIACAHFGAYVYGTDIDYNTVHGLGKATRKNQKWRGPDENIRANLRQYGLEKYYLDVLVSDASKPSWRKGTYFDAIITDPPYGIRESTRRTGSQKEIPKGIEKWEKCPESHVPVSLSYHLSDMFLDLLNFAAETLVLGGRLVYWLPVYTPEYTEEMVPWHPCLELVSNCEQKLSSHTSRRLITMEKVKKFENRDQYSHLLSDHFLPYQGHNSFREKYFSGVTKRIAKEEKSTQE
UniProt Q8IZ69: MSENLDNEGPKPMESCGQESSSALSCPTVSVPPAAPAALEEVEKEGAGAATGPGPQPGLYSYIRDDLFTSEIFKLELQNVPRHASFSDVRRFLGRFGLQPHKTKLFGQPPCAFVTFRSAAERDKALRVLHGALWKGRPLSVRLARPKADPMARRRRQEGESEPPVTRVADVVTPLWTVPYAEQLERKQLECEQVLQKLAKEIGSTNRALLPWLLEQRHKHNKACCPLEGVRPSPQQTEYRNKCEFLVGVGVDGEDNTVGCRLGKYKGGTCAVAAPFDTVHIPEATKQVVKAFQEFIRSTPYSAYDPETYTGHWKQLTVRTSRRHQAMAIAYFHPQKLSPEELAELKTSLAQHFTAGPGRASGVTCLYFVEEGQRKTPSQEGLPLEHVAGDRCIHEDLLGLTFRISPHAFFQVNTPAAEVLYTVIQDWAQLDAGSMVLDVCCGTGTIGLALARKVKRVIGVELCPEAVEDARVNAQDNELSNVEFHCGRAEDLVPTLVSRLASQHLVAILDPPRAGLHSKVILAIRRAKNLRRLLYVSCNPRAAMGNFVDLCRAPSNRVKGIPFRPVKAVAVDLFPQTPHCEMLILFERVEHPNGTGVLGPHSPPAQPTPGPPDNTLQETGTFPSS
UniProt Q9NXH8: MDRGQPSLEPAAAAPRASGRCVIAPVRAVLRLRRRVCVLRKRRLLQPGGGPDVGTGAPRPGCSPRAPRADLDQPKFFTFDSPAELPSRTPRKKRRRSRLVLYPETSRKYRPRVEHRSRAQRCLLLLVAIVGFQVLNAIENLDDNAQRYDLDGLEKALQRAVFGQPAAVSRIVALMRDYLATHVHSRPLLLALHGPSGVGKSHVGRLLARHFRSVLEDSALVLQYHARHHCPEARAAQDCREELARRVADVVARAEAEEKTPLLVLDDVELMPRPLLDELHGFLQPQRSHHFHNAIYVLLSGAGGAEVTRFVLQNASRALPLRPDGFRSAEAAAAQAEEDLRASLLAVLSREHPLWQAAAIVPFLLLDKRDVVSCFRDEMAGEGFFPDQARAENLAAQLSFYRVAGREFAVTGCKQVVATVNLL
UniProt P02585, whole entry, looked up: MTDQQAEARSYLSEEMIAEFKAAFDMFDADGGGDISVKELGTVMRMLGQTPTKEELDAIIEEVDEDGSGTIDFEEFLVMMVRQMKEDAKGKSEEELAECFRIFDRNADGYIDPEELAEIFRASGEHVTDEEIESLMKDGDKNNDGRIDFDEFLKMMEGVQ
UniProt Q9BW30: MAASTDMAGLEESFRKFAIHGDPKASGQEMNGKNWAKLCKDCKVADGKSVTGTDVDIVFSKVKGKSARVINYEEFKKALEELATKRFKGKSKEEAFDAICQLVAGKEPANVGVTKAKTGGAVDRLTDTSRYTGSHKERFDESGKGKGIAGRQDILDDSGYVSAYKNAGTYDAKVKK
UniProt P13693: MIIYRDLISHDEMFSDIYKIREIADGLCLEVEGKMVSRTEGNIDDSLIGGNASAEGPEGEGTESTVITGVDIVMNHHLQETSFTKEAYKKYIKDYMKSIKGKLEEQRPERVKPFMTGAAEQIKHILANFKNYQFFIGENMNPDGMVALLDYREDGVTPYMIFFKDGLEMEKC
UniProt O14656: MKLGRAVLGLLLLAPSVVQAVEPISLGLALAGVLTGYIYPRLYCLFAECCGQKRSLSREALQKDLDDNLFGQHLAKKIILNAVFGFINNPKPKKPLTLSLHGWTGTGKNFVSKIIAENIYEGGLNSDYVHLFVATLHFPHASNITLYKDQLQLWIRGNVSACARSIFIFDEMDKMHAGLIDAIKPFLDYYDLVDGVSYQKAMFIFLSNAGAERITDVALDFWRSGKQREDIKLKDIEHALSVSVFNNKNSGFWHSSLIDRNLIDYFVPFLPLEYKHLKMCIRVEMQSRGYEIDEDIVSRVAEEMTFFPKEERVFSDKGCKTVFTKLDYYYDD
UniProt Q5JTV8: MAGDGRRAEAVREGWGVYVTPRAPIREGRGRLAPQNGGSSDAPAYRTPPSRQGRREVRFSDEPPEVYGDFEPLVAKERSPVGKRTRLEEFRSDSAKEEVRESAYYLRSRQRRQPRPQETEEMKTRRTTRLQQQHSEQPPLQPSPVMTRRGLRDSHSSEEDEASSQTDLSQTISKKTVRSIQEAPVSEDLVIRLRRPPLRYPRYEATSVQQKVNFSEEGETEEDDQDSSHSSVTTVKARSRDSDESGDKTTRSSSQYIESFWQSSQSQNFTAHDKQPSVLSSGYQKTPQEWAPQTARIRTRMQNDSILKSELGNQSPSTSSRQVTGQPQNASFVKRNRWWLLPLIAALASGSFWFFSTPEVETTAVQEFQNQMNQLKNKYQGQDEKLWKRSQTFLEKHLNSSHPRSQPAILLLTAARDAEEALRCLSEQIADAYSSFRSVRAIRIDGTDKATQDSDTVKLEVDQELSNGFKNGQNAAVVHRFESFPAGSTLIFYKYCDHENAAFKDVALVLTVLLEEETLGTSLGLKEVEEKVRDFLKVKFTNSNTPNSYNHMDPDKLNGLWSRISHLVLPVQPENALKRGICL
UniProt Q96DX7: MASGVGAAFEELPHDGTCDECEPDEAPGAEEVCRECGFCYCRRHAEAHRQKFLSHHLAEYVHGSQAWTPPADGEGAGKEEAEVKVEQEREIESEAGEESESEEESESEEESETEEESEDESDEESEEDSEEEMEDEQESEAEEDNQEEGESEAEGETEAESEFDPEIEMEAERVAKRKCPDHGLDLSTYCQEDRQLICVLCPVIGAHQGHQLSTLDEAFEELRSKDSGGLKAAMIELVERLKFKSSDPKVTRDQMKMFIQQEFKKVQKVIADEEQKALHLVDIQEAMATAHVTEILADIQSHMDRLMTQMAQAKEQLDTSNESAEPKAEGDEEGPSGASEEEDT
UniProt Q15388, whole entry, looked up: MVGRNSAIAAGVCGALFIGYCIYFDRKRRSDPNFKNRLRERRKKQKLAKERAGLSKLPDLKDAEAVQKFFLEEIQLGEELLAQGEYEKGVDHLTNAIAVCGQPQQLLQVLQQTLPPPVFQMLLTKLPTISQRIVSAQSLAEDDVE
UniProt P06753, whole entry, looked up: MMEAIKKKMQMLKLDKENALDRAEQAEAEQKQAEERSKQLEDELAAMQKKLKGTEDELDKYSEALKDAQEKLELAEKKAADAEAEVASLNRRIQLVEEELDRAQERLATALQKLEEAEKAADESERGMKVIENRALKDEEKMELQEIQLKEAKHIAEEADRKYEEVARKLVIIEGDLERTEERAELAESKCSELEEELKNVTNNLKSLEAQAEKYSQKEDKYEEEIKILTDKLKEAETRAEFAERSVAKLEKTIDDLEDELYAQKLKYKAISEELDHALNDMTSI
UniProt Q9BRZ2: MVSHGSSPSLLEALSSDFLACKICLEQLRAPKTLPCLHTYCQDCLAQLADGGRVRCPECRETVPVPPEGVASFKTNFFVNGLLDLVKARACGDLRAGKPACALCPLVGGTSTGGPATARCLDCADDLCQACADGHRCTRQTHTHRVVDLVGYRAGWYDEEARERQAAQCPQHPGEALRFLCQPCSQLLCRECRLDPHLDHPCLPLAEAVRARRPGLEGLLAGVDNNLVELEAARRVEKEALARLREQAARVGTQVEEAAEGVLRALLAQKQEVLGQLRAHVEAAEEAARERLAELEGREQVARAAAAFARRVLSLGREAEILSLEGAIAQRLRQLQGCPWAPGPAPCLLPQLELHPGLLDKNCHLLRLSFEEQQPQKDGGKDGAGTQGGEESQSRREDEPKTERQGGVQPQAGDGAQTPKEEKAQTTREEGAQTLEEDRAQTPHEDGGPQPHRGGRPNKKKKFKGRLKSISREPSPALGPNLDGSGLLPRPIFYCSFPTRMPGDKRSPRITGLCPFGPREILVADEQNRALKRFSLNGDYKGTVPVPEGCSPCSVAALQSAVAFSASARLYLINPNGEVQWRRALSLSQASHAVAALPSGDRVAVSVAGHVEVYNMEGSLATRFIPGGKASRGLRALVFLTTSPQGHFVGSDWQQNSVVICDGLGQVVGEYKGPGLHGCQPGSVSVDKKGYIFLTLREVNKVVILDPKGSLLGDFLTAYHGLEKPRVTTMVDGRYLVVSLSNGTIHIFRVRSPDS
UniProt P67936, whole entry, looked up: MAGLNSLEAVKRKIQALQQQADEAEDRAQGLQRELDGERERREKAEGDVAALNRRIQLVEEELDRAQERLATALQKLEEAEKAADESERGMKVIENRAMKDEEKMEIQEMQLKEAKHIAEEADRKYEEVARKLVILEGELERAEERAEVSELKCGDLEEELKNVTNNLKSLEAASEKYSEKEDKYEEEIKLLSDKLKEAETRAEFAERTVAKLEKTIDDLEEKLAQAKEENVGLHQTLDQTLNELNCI
UniProt Q9Y5R8, whole entry, looked up: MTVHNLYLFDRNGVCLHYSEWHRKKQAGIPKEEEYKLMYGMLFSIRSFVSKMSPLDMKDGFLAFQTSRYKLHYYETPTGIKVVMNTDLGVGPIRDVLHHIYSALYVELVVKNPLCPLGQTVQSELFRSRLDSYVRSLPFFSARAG
UniProt O95900: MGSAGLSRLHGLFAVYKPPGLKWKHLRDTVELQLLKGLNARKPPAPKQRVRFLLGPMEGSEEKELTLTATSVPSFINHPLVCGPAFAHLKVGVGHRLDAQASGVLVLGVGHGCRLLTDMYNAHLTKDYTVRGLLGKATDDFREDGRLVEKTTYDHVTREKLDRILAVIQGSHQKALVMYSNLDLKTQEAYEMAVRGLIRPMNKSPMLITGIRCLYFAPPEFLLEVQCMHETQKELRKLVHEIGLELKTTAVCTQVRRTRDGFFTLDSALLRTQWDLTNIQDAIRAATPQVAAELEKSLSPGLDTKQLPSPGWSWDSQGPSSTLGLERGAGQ

Assays:
Test in all cases: log2 fold change, soluble protein after heating vs DMSO (PISA); higher = thermal stabilisation; K562 cells, 10 uM, 30 min; active = over 0.2 and 3.5 SD of the protein, either way, in both replicates (recomputed)
[1] = compound: CC1=C(C=C(C=C1)NC(=O)C2=CC(=CC=C2)C(C)(C)C#N)NC3=CC4=C(C=C3)N=CN(C4=O)C
In short: (§1)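 For each measurement, 10 μM compound was applied for 30 min to K562 cells at 2×10^6 cells/mL. Aliquots were heated for 3 min across 48°C-58°C, pooled, and extracted in PBS with 0.5% NP-40 at 4°C; the supernatant after 21,000xg for 90 min was soluble protein. This was quantified by TMTpro 16plex LC-MS/MS with channel sums equalised, and thermal stability was reported relative to control samples from duplicates, on a log2 fold-change scale.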

[2] = compound: CC1=C(C=C(C=C1)NC(=O)C2=CC(=CC=C2)N(C)C)NC(=O)C3=CC=C(C=C3)O
In short: as §1

[3] = compound: CC1=CC=C(C=C1)SC2=C3C=C(SC3=CN=C2)C(=O)N
In short: as §1

[4] = compound: CC1=NC(=CC=C1)C2=C(N=C(N2)C(C)(C)C)C3=CC4=NC=CN=C4C=C3
In short: as §1

Nexturastat A = compound: CCCCN(Cc1ccc(C(=O)NO)cc1)C(=O)Nc1ccccc1 [Nexturastat A]
In short: as §1

vemurafenib = compound: CCCS(=O)(=O)Nc1ccc(F)c(C(=O)c2c[nH]c3ncc(-c4ccc(Cl)cc4)cc23)c1F [vemurafenib]
In short: as §1

[5] = compound: CCCS(=O)(=O)Nc1ccc(F)c(C(=O)c2c[nH]c3ncc(Cl)cc23)c1F
In short: as §1

[6] = compound: CCCc1cc(C)[nH]c(=O)c1CNC(=O)c1cc(-c2ccnc(N3CCN(C)CC3)c2)cc2c1cnn2C(C)C
In short: as §1

givinostat = compound: CCN(CC)Cc1ccc2cc(COC(=O)Nc3ccc(C(=O)NO)cc3)ccc2c1 [givinostat]
In short: as §1

barasertib = compound: CCN(CCCOc1ccc2c(Nc3cc(CC(=O)Nc4cccc(F)c4)[nH]n3)ncnc2c1)CCOP(=O)(O)O [barasertib]
In short: as §1

Measured: log2 fold change

TPMT (UniProt P51580)
inactive: [1] -0.004 | [2] -0.003 | [3] 0.008 | [4] 0.046 | Nexturastat A -0.158 | vemurafenib 0.059 | [5] 0.07 | [6] 0.026 | givinostat -0.037 | barasertib 0.011

TRIP10 isoform 2 (UniProt Q15642)
inactive: [1] -0.068 | [2] -0.04 | [3] 0.019 | [4] 0.046 | Nexturastat A 0.12 | vemurafenib 0.026 | [5] 0.177 | [6] 0.004 | givinostat 0.01 | barasertib 0.011

TPM4, A0A2R8Y5V9
inactive: [1] -0.049 | [2] 0.038 | [3] -0.076 | [4] 0.01 | Nexturastat A -0.047 | vemurafenib -0.011 | [5] -0.115 | [6] -0.016 | givinostat -0.004 | barasertib 0.01

TRIP4 (UniProt Q15650)
inactive: [1] -0.013 | [2] -0.032 | [3] 0.034 | [4] -0.008 | Nexturastat A 0.147 | vemurafenib 0.011 | [5] -0.037 | [6] 0.059 | givinostat -0.002 | barasertib 0.027

TPP1 (UniProt O14773)
inactive: [1] 0.006 | [2] 0.037 | [3] 0.02 | [4] 0.03 | Nexturastat A -0.007 | vemurafenib -0.006 | [5] -0.021 | [6] 0 | givinostat -0.015 | barasertib -0.018

TRMT11 (UniProt Q7Z4G4)
inactive: [1] -0.072 | [2] 0.017 | [3] 0.007 | [4] 0.037 | Nexturastat A -0.07 | vemurafenib 0.012 | [5] 0.038 | [6] -0.003 | givinostat 0.004 | barasertib 0.021

TOMM40L (UniProt Q969M1)
inactive: [1] 0.023 | [2] 0.037 | [3] -0.013 | [4] -0.012 | Nexturastat A -0.036 | vemurafenib 0.082 | [5] -0.02 | [6] -0.015 | givinostat -0.032 | barasertib -0.015

TPP2 (UniProt Q5VZU9)
inactive: [1] 0.027 | [2] -0.163 | [3] -0.118 | [4] -0.091 | Nexturastat A 0.27 | vemurafenib -0.181 | [5] -0.152 | [6] 0.092 | givinostat 0.158 | barasertib 0.004

TRMT2A (UniProt Q8IZ69)
inactive: [1] 0.083 | [2] -0.02 | [3] -0.009 | [4] 0.005 | Nexturastat A 0.013 | vemurafenib 0.022 | [5] -0.032 | [6] 0.085 | givinostat -0.123 | barasertib -0.003

TOR4A (UniProt Q9NXH8)
inactive: [1] 0 | [2] -0.018 | [3] -0.013 | [4] -0.022 | Nexturastat A 0.075 | vemurafenib 0.048 | [5] -0.043 | [6] 0.081 | givinostat 0.097 | barasertib -0.022

TOMM5 isoform 2 (UniProt Q8N4H5)
inactive: [1] -0.009 | [2] 0.367 | [3] 0.005 | [4] 0.084 | Nexturastat A 0.025 | vemurafenib 0 | [5] -0.011 | [6] 0.141 | givinostat -0.029 | barasertib 0.03

TNNC2 (UniProt P02585)
inactive: [1] -0.064 | [2] 0.037 | [3] 0.002 | [4] -0.024 | Nexturastat A -0.011 | vemurafenib 0 | [5] -0.016 | [6] -0.045 | givinostat -0.037 | barasertib -0.004

TPPP3 (UniProt Q9BW30)
inactive: [1] -0.024 | [2] -0.067 | [4] 0.021 | Nexturastat A 0.062

TRMT10A (UniProt Q8TBZ6)
inactive: [1] 0.006 | [2] -0.004 | [3] 0.063 | [4] 0.031 | Nexturastat A -0.079 | vemurafenib 0.014 | [5] -0.017 | [6] -0.011 | givinostat -0.004 | barasertib -0.019

TPT1 (UniProt P13693)
inactive: [1] 0.095 | [2] -0.033 | [3] 0.004 | [4] 0.032 | Nexturastat A -0.025 | vemurafenib 0.019 | [5] 0.011 | [6] 0.117 | givinostat 0.002 | barasertib -0.016

TOR1A (UniProt O14656)
inactive: [1] -0.023 | [2] 0.011 | [3] -0.01 | [4] -0.02 | Nexturastat A -0.011 | vemurafenib -0.007 | [5] -0.018 | [6] -0.088 | givinostat -0.026 | barasertib 0.004

TRIM23 (UniProt P36406)
inactive: [1] -0.025 | [2] -0.008 | [4] 0.036 | vemurafenib -0.022 | [6] 0.055 | givinostat 0.027 | barasertib 0.021

TRIM28 (UniProt Q13263)
inactive: [1] 0.013 | [2] -0.049 | [3] 0.013 | [4] 0.041 | Nexturastat A -0.059 | vemurafenib 0.078 | [5] 0.075 | [6] 0.012 | givinostat 0.039 | barasertib 0.04

TSC22D4 (UniProt Q9Y3Q8)
inactive: [1] 0.019 | [2] 0 | [3] -0.027 | [4] 0.004 | Nexturastat A 0.027 | vemurafenib -0.02 | [5] 0.003 | [6] -0.008 | givinostat 0.011 | barasertib 0.031

TOE1 (UniProt Q96GM8)
inactive: [1] 0.099 | [2] 0.056 | [3] -0.012 | [4] -0.109 | Nexturastat A 0.078 | vemurafenib -0.016 | [5] 0.048 | [6] 0.059 | givinostat -0.055 | barasertib -0.063

TOR1AIP1 (UniProt Q5JTV8)
inactive: [1] 0.077 | [2] 0.031 | [3] -0.001 | [4] -0.074 | Nexturastat A 0.056 | [5] 0.033 | [6] -0.057 | barasertib 0.024

TNPO1 (UniProt Q92973)
inactive: [1] 0.041 | [2] 0 | [3] 0.037 | [4] 0 | Nexturastat A -0.017 | vemurafenib 0.015 | [5] 0.064 | [6] -0.009 | givinostat 0.015 | barasertib -0.005

TRIM44 (UniProt Q96DX7)
inactive: [1] 0.059 | [2] -0.055 | [3] 0.06 | [4] 0.015 | vemurafenib -0.005 | [5] 0.042 | [6] 0 | givinostat -0.026 | barasertib -0.035

TRAF7 (UniProt Q6Q0C0)
inactive: [1] 0.038 | [3] 0.052 | [4] -0.194 | Nexturastat A 0.063 | vemurafenib -0.088 | [5] 0.066 | [6] 0.104 | givinostat 0.016 | barasertib 0.153

TOMM20 (UniProt Q15388)
inactive: [1] 0.058 | [2] 0.044 | [3] 0.04 | [4] -0.019 | Nexturastat A 0.019 | vemurafenib -0.024 | [5] 0.092 | [6] 0.026 | givinostat 0.011 | barasertib 0.021

TRAPPC9 isoform 2 (UniProt Q96Q05)
inactive: [1] 0.048 | [2] -0.016 | [3] -0.039 | [4] -0.007 | Nexturastat A 0.045 | vemurafenib -0.01 | [5] 0.008 | [6] -0.019 | givinostat 0.021 | barasertib 0.016

TPM3 isoform 2 (UniProt P06753)
inactive: [1] 0.016 | [2] -0.012 | [3] -0.09 | [4] 0.01 | Nexturastat A -0.03 | vemurafenib -0.031 | [5] -0.06 | [6] -0.019 | givinostat -0.105 | barasertib 0.037

TRIM56 (UniProt Q9BRZ2)
inactive: [1] -0.04 | [2] -0.103 | [3] -0.163 | [4] -0.136 | Nexturastat A 0.054 | [5] -0.06 | [6] 0.009 | givinostat -0.005 | barasertib -0.163

TPM4 isoform 2 (UniProt P67936)
inactive: [1] 0.101 | [2] 0.033 | [3] 0.081 | [4] 0.04 | Nexturastat A -0.102 | vemurafenib 0.137 | [5] 0.213 | [6] -0.079 | givinostat -0.083 | barasertib 0.021

TPRG1L (UniProt Q5T0D9)
inactive: [1] 0.106 | [2] -0.062 | [3] 0.216 | Nexturastat A -0.042 | [5] 0.238 | [6] -0.376 | givinostat 0.138

TRAPPC1 (UniProt Q9Y5R8)
inactive: [1] -0.078 | [2] -0.018 | [3] 0.009 | [4] -0.09 | vemurafenib -0.054 | [5] -0.071 | [6] -0.002 | givinostat 0.004 | barasertib 0.125

Two successive records from above, for reference:
TRIM56 (UniProt Q9BRZ2)
inactive: [1] -0.04 | [2] -0.103 | [3] -0.163 | [4] -0.136 | Nexturastat A 0.054 | [5] -0.06 | [6] 0.009 | givinostat -0.005 | barasertib -0.163

TPM4 isoform 2 (UniProt P67936)
inactive: [1] 0.101 | [2] 0.033 | [3] 0.081 | [4] 0.04 | Nexturastat A -0.102 | vemurafenib 0.137 | [5] 0.213 | [6] -0.079 | givinostat -0.083 | barasertib 0.021

Following part.

TOLLIP (UniProt Q9H0E2)
inactive: [1] 0.033 | [2] 0.006 | [3] 0.007 | [4] 0.042 | Nexturastat A -0.054 | vemurafenib 0.116 | [5] 0.033 | [6] 0.016 | givinostat -0.062 | barasertib -0.01

TRIM38 (UniProt O00635)
inactive: [1] -0.248 | [3] -0.072 | [4] -0.286 | Nexturastat A 0.037 | vemurafenib -0.063 | [5] -0.233 | [6] 0.019 | givinostat -0.125 | barasertib 0.052

TRUB2 (UniProt O95900)
inactive: [1] -0.071 | [3] 0.044 | [4] 0.052 | Nexturastat A 0.068 | [5] -0.359 | givinostat 0.014
